Legend:
Format in all cases: in vivo, Male Swiss OF-1 mice
dizocilpine-treated mice [1] = assay: spontaneous alternation in the Y-maze, dizocilpine-induced amnesia model
dizocilpine-treated mice [2] = assay: dizocilpine-induced learning deficits, statements covering both tests (Y-maze and passive avoidance); conditions: for interaction by combination index: combination of low doses with PRE-084; for interaction by CIs: combination with DHEAS
Protocol: Experiments were conducted to determine the dose-response effects of fenfluramine (FEN) and norfenfluramine (NOR), racemate and (+)- and (−)-isomers, in an in vivo mouse model; the dizocilpine-induced amnesia model (described below) is used to test responses to drugs acting at the sigma-1 receptor (S1R) (Maurice et al., 1994a,b; Maurice, et al., 1998, Neuroscience 83:413-428).
The drugs were administered intraperitoneally (“ip” or “IP”) with dizocilpine (0.15 mg/kg) and tested in the spontaneous alternation test on day 1 and in the passive avoidance test on days 2-3.
The apparatus consisted of a 2-compartment box, with one illuminated with white polyvinylchloride (PVC) walls and a transparent cover (15×20×15 cm high), one with black polyvinylchloride walls and cover (15×20×15 cm high), and a grid floor. A guillotine door separated each compartment. A 60 W lamp was positioned 40 cm above the apparatus lit the white compartment during the experimental period. Scrambled foot shocks (0.3 mA for 3 s) were delivered to the grid floor using a shock generator scrambler (Lafayette Instruments, Lafayette, Mass., USA). The guillotine door was initially closed during the training session. Each mouse was placed into the white compartment. After 5 s, the door was raised. When the mouse entered the darkened compartment and placed all its paws on the grid floor, the door was gently closed and the 3-scrambled foot shock was delivered for 3 s. The step-through latency, i.e., the latency spent to enter the dark compartment, and the level of sensitivity to the shock were recorded. The latter was evaluated as: 0=no sign; 1=flinching reactions; 2=flinching and vocalization reactions. The retention test was carried out 24 h after training. Each mouse was placed again into the white compartment. After 5 s, the door was raised. The step-through latency was recorded up to 300 s. Animals entered the darkened compartment or were gently pushed into it and the escape latency, i.e., the time spent to return into the white compartment, was also measured up to 300 s. Results were expressed as median and interquartile (25%-75%) range.
The Y-maze is made of grey PVC. Each arm is 40 cm long, 13 cm high, 3 cm wide at the bottom, 10 cm wide at the top, and converged at an equal angle. Each mouse was placed at the end of one arm and allowed to move freely through the maze during an 8-min session. The series of arm entries, including possible returns into the same arm, were checked visually. An alternation was defined as entries into all three arms on consecutive occasions. The number of maximum alternations was therefore the total number of arm entries minus two and the percentage of alternation was calculated as: actual alternations/maximum alternations)×100. Parameters included the percentage of alternation (memory index) and total number of arm entries (exploration index).

dizocilpine-treated mice [3] = assay: step-through passive avoidance, dizocilpine-induced amnesia model

Compound | interaction by CIs, spontaneous alternation test (dizocilpine-treated mice [1]; combination with PREGS) | interaction by combination index (dizocilpine-treated mice [2]) | interaction by CIs (dizocilpine-treated mice [2]) | interaction by CIs, passive avoidance response (dizocilpine-treated mice [3]; combination with PREGS) | interaction by CIs, both spontaneous alternation and passive avoidance (dizocilpine-treated mice [2]; combination of the lowest doses with DHEAS) | interaction by CIs, all responses (dizocilpine-treated mice [2]; combination with PREGS) | interaction by CI, Y-maze assay (dizocilpine-treated mice [1]; combination with PRE-084) | interaction by CI, passive avoidance assay (dizocilpine-treated mice [3]; combination with PRE-084)
CCNC(C)Cc1cccc(C(F)(F)F)c1 (racemic) [Fenfluramine, (RS)—N-ethyl-1-[3-(trifluoromethyl)phenyl]propan-2-amine] | additive or synergistic effect | synergistic effects | additive or synergistic effects | but not in the passive avoidance response |  |  |  | 
CCN[C@@H](C)Cc1cccc(C(F)(F)F)c1 [(+)-Fenfluramine, (2S)-N-ethyl-1-[3-(trifluoromethyl)phenyl]propan-2-amine] |  | synergistic effects | additive or synergistic effects |  | synergistic | additive or synergistic effects |  | 
CCN[C@H](C)Cc1cccc(C(F)(F)F)c1 [(−)-Fenfluramine, (2R)-N-ethyl-1-[3-(trifluoromethyl)phenyl]propan-2-amine] |  |  |  |  |  |  | antagonistic effect | additive effect

From patent US20210401776A1, “METHOD OF TREATING […] SYNDROMES USING FENFLURAMINE ENANTIOMERS” (ZOGENIX INTERNATIONAL LIMITED, priority 2018, published 2021)
